# No constants are given. Whether binding was seen depends on the method and setting. Binding seen in cells or lysates may run through a third protein.
# Chains of the proteins cited; added tags and fusions are not shown.
# UniProt O77430: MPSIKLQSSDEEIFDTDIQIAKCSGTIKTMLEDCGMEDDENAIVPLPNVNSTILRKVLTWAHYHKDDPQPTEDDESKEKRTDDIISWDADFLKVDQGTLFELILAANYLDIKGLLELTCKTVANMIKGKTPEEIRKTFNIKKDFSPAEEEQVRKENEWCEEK
# UniProt P40797: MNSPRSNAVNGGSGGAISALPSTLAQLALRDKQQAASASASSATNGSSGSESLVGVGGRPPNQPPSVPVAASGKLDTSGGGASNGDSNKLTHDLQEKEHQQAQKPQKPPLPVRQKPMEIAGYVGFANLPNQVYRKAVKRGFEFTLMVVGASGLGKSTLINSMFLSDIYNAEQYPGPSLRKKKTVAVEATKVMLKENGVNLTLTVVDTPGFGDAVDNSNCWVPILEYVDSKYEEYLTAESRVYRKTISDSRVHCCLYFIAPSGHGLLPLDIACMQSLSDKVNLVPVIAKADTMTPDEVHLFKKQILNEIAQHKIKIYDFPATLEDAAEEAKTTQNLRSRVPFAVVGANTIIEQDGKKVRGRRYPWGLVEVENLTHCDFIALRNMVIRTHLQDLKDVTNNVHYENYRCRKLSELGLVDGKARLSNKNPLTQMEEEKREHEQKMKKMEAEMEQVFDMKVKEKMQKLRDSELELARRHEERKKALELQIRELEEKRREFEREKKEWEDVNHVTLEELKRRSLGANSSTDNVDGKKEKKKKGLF
# Columns and labels:
# [1] = biological target: SkpA (Drosophila melanogaster (endogenous in 0-4-h embryos)) (UniProt O77430); assay: co-IP; clarified 0-4-h embryo extract in C buffer; affinity-purified anti-SkpA or anti-Pnut antibodies immobilised (Profound Co-immunoprecipitation kit, Pierce), control beads without antibody; Western blot for SkpA, SkAP and Pnut
# [2] = biological target: Pnut (Drosophila melanogaster (endogenous in 0-4-h embryos)) (UniProt P40797); assay: as above
Substance,binding [1],binding [2]
Pnut (from UniProt P40797 1-539),no binding,–
SkpA (from UniProt O77430 1-162),–,no binding

# From article PMC2323305
